Test results: PubChem BioAssay AID248 (DTP/NCI, 2004)
The list does not hold the whole screen: it is rich in T/C values a quarter to a half above the control, in often repeated tests (any T/C) and in doses without a T/C. Other doses and runs of a compound stand elsewhere. T/C is the treated group as % of the vehicle group. Some doses have a count of surviving animals in place of a T/C: the source holds a T/C of zero for them, seemingly a mark for toxic or unscored doses. Some survivor counts are full or nearly so, which does not show that the dose was tolerated: survival well below the control is almost never listed, so the zero probably covers shortened survival too. Survivors were counted at the toxicity check, usually on the fifth day, unless a day is given; later deaths do not show. Schedule codes are those of the source, read here as Q, the interval in days (D) or hours (H), X, the number of doses. Some doses were run more than once; the values are given in rising order. Some schedule codes hold Z or #, which are not explained here. Some molecules as drawn cover several salts, stereoisomers or complexes of the source; a dose is that of the sample tested. For survival time, the PubChem record calls one and a half times the control and up active, and a quarter to a half above the control has no call in these data; cut-offs in other NCI protocols can differ.

Test system: L1210 leukemia ip in BDF1 mice, survival T/C
Experiment: NCI In Vivo Anticancer Drug Screen. Data for tumor model L1210 Leukemia (intraperitoneal) in B6D2F1 (BDF1) mice
Conditions: T/C endpoint: mean survival time, higher T/C = longer survival
[1] = dose: 200.0 mg/kg/injection, schedule: Q01DX001 (ip), vehicle: carboxymethylcellulose (CMC)
[2] = dose: 200.0 mg/kg/injection, schedule: Q01DX009 (ip), vehicle: saline with Tween-80
[3] = dose: 400.0 mg/kg/injection, schedule: Q01DX009 (ip), vehicle: saline with Tween-80
[4] = dose: 200.0 mg/kg/injection, schedule: Q01DX001 (ip), vehicle: saline
[5] = dose: 400.0 mg/kg/injection, schedule: Q01DX001 (ip), vehicle: saline
[6] = dose: 100.0 mg/kg/injection, schedule: Q01DX009 (ip), vehicle: saline with Tween-80
[7] = dose: 400.0 mg/kg/injection, schedule: Q04DX002 (ip), vehicle: saline with Tween-80
[8] = dose: 100.0 mg/kg/injection, schedule: Q01DX009 (ip), vehicle: Klucel (hydroxypropylcellulose) (HPC)
[9] = dose: 50.0 mg/kg/injection, schedule: Q01DX009 (ip), vehicle: Klucel (hydroxypropylcellulose) (HPC)
[10] = dose: 200.0 mg/kg/injection, schedule: Q01DX009 (ip), vehicle: Klucel (hydroxypropylcellulose) (HPC)
[11] = dose: 200.0 mg/kg/injection, schedule: Q01DX009 (ip), vehicle: saline
[12] = dose: 400.0 mg/kg/injection, schedule: Q01DX009 (ip), vehicle: Klucel (hydroxypropylcellulose) (HPC)

`O=S(=O)(F)c1ccc(C[P+](c2ccccc2)(c2ccccc2)c2ccccc2)cc1Cl` was tested. Which survivor count (dose: 100.0 mg/kg/injection, schedule: Q01DX001 (ip), vehicle: carboxymethylcellulose (CMC)) did it give?
Its survivor count is 0 of 6 and 1 of 3.

And the survivor count [1]?
The survivor count was 0 of 3 and 0 of 6.

And the survivor count (dose: 200.0 mg/kg/injection, schedule: Q04DX002 (ip), vehicle: carboxymethylcellulose (CMC))?
Its survivor count is 0 of 3 and 1 of 6.

What about the survivor count (dose: 400.0 mg/kg/injection, schedule: Q04DX002 (ip), vehicle: carboxymethylcellulose (CMC)) of the same molecule?
The survivor count was 0 of 3 and 0 of 6.

Which survivor count [2] does the source give for `COC1=CC2C3=CC(C)C4C(=O)OC(=O)C4C3C1C1C(=O)OC(=O)C21` (stereo not given) here?
Its survivor count is 0 of 3.

For `O=C1C(=O)c2ccccc2C(O)=C1C(C1=C(O)c2ccccc2C(=O)C1=O)c1ccc(Cl)c(Cl)c1`, which survivor count (dose: 150.0 mg/kg/injection, schedule: Q01DX001 (ip), vehicle: carboxymethylcellulose (CMC)) is on record?
The survivor count was 0 of 6.

What about the survivor count (dose: 300.0 mg/kg/injection, schedule: Q01DX001 (ip), vehicle: carboxymethylcellulose (CMC)) of the same molecule?
Its survivor count is 0 of 6.

Which survivor count [2] does the source give for `COC(=O)C(CSCSC)NC(=O)/C=C/c1ccco1` (stereo not given) here?
The survivor count was 4 of 6.

And the survivor count [3]?
Its survivor count is 1 of 6.

With `CS(=O)(=O)OCCCS(=O)(=O)O` as the molecule, how does the survivor count [4] read?
Its survivor count is 2 of 4.

What about the survivor count [5] of the same molecule?
Its survivor count is 1 of 4.

How did the T/C [6] turn out when `Cc1ccc(Cl)cc1NC(=O)N1C(C)CCCC1C` (stereo not given) was run?
Its T/C is 90, 102, 106 % of control.

And the survivor count [6]?
The survivor count was 2 of 6.

What about the survivor count [2] of the same molecule?
The survivor count was 0 of 6, 1 of 3, 3 of 3, 6 of 6.

What about the survivor count (dose: 400.0 mg/kg/injection, schedule: Q01DX001 (ip), vehicle: saline with Tween-80) of the same molecule?
Its survivor count is 0 of 3.

What about the survivor count [5] of the same molecule?
The survivor count was 3 of 6.

And the survivor count [3]?
Its survivor count is 0 of 3 and 1 of 6.

And the survivor count [7]?
The survivor count was 3 of 6.

Which survivor count (dose: 25.0 mg/kg/injection, schedule: Q01DX009 (ip), vehicle: Klucel (hydroxypropylcellulose) (HPC)) does the source give for `Cc1cnc2c(Nc3ccc(Cl)cc3)cc(N)nc2n1` here?
The survivor count was 6 of 6.

And the survivor count (dose: 100.0 mg/kg/injection, schedule: Q01DX001 (ip), vehicle: other)?
Its survivor count is 2 of 6.

What about the survivor count [8] of the same molecule?
Its survivor count is 0 of 6.

And the survivor count (dose: 100.0 mg/kg/injection, schedule: Q04DX003 (ip), vehicle: Klucel (hydroxypropylcellulose) (HPC))?
The survivor count was 2 of 6.

And the survivor count (dose: 200.0 mg/kg/injection, schedule: Q01DX001 (ip), vehicle: other)?
Its survivor count is 0 of 6.

And the survivor count (dose: 400.0 mg/kg/injection, schedule: Q01DX001 (ip), vehicle: other)?
Its survivor count is 1 of 6.

With `FC(F)(F)c1cccc(NC2=NCCS2)c1` as the molecule, how does the survivor count [2] read?
Its survivor count is 2 of 3.

What about the survivor count [7] of the same molecule?
Its survivor count is 2 of 3.

How did the survivor count [9] turn out when `C/C(Cc1cc(C)nc(N)n1)=N\Nc1ccccc1` was run?
The survivor count was 3 of 3.

What about the survivor count [8] of the same molecule?
The survivor count was 3 of 3.

What about the survivor count [10] of the same molecule?
Its survivor count is 3 of 3.

For `CCO/N=C(/C)C(C)SC#N` (stereo not given), which survivor count (dose: 40.0 mg/kg/injection, schedule: Q01DX001 (ip), vehicle: saline) is on record?
Its survivor count is 3 of 6.

Which results are given for `CCN1/C(=C/C(C)=C/c2sc3ccccc3[n+]2CC)Sc2ccccc21`?
survivor count (dose: 9.5 mg/kg/injection, schedule: Q01DX001 (ip), vehicle: other): 0 of 6; survivor count (dose: 19.0 mg/kg/injection, schedule: Q01DX001 (ip), vehicle: other): 0 of 6; survivor count (dose: 38.0 mg/kg/injection, schedule: Q01DX001 (ip), vehicle: other): 0 of 6; survivor count (dose: 300.0 micrograms/kg/injection, schedule: Q01DX015 (ip), vehicle: saline): 3 of 6; survivor count (dose: 450.0 micrograms/kg/injection, schedule: Q01DX015 (ip), vehicle: saline): 3 of 6; survivor count (dose: 675.0 micrograms/kg/injection, schedule: Q01DX015 (ip), vehicle: saline): 2 of 6

With `O=c1[nH]cncc1F` as the molecule, how does the T/C (dose: 264.0 mg/kg/injection, schedule: Q01DX001 (ip), vehicle: saline) read?
Its T/C is 142 % of control.

What about the survivor count (dose: 600.0 mg/kg/injection, schedule: Q01DX001 (ip), vehicle: saline) of the same molecule?
The survivor count was 6 of 6.

For `Cc1ncnc(NN)c1N`, which survivor count (dose: 125.0 mg/kg/injection, schedule: Q01DX Z (ip), vehicle: methylcellulose (MC)) is on record?
Its survivor count is 0 of 6.

`COc1ccc(NC(=O)Nc2cccc(SC)c2)cc1` was tested. Which survivor count (dose: 400.0 mg/kg/injection, schedule: Q01DX009 (ip), vehicle: carboxymethylcellulose (CMC)) did it give?
The survivor count was 3 of 3.

`Brc1ccc(C[n+]2ccccc2)cc1` was tested. Which survivor count (dose: 75.0 mg/kg/injection, schedule: Q01DX009 (ip), vehicle: saline) did it give?
The survivor count was 0 of 6.

And the survivor count (dose: 100.0 mg/kg/injection, schedule: Q01DX001 (ip), vehicle: saline)?
Its survivor count is 0 of 6.

And the survivor count (dose: 115.0 mg/kg/injection, schedule: Q04DX003 (ip), vehicle: saline)?
The survivor count was 1 of 6.

What about the survivor count (dose: 170.0 mg/kg/injection, schedule: Q04DX003 (ip), vehicle: saline) of the same molecule?
Its survivor count is 0 of 6.

And the survivor count [4]?
Its survivor count is 1 of 6.

What about the survivor count [5] of the same molecule?
The survivor count was 0 of 6.

With `CC(C)NS(=O)(=O)c1ccc(Cl)cc1` as the molecule, how does the survivor count (dose: 400.0 mg/kg/injection, schedule: Q04DX003 (ip), vehicle: Klucel (hydroxypropylcellulose) (HPC)) read?
Its survivor count is 3 of 6.

`Cc1ccc2c(ccc(/C=C\c3cc(C)c4cccnc4c3O)[n+]2C)c1` was tested. Which survivor count [1] did it give?
Its survivor count is 3 of 6.

What about the survivor count (dose: 400.0 mg/kg/injection, schedule: Q01DX001 (ip), vehicle: carboxymethylcellulose (CMC)) of the same molecule?
Its survivor count is 0 of 6.

Which survivor count (dose: 100.0 mg/kg/injection, schedule: Q01DX001 (ip), vehicle: Klucel (hydroxypropylcellulose) (HPC)) does the source give for `O=[N+]([O-])c1cccc(SN2CC2)c1` here?
The survivor count was 0 of 6.

What about the survivor count (dose: 200.0 mg/kg/injection, schedule: Q01DX001 (ip), vehicle: Klucel (hydroxypropylcellulose) (HPC)) of the same molecule?
The survivor count was 0 of 6.

What about the survivor count (dose: 400.0 mg/kg/injection, schedule: Q01DX001 (ip), vehicle: Klucel (hydroxypropylcellulose) (HPC)) of the same molecule?
The survivor count was 0 of 6.

With `CCCCNC(=O)Oc1ccc(C(=O)OCCC)cc1` as the molecule, how does the survivor count (dose: 200.0 mg/kg/injection, schedule: Q01DX009 (ip), vehicle: other) read?
Its survivor count is 2 of 3.

And the survivor count [3]?
Its survivor count is 3 of 6 and 2 of 3.

Which survivor count [11] does the source give for `Nc1ncnc2c1cnn2Cc1ccc(Cl)cc1` here?
Its survivor count is 5 of 6.

What about the survivor count (dose: 400.0 mg/kg/injection, schedule: Q04DX003 (ip), vehicle: carboxymethylcellulose (CMC)) of the same molecule?
Its survivor count is 3 of 6.

`OC1CC[N-]CC1.OC1CC[N-]CC1.[Cl][Pt+2]([Cl])([Cl])[Cl]` was tested. Which survivor count [6] did it give?
Its survivor count is 3 of 6.

And the survivor count (dose: 200.0 mg/kg/injection, schedule: Q04DX003 (ip), vehicle: saline with Tween-80)?
The survivor count was 3 of 6.

And the survivor count (dose: 400.0 mg/kg/injection, schedule: Q04DX003 (ip), vehicle: saline with Tween-80)?
Its survivor count is 1 of 6.

How did the survivor count (dose: 100.0 mg/kg/injection, schedule: Q01DX009 (ip), vehicle: saline) turn out when `CCN(CC)CCNCCN` was run?
Its survivor count is 2 of 6.

And the survivor count [11]?
The survivor count was 0 of 6.

And the survivor count (dose: 400.0 mg/kg/injection, schedule: Q04DX003 (ip), vehicle: saline)?
The survivor count was 0 of 6.

`COC1=C(Br)C(=O)C(Br)=C(OC)C1=O` was tested. Which survivor count (dose: 400.0 mg/kg/injection, schedule: Q04DX002 (ip), vehicle: other) did it give?
The survivor count was 0 of 3.

How did the survivor count (dose: 35.0 mg/kg/injection, schedule: Q04DX003 (ip), vehicle: acetone) turn out when `[C-]#[N+]C(C)(CC)c1ccccc1` (stereo not given) was run?
Its survivor count is 6 of 6.

What about the survivor count (dose: 50.0 mg/kg/injection, schedule: Q01DX001 (ip), vehicle: acetone) of the same molecule?
The survivor count was 3 of 6.

What about the survivor count (dose: 55.0 mg/kg/injection, schedule: Q04DX003 (ip), vehicle: acetone) of the same molecule?
Its survivor count is 6 of 6.

And the survivor count (dose: 80.0 mg/kg/injection, schedule: Q04DX003 (ip), vehicle: acetone)?
The survivor count was 4 of 6.

And the survivor count (dose: 100.0 mg/kg/injection, schedule: Q01DX001 (ip), vehicle: acetone)?
Its survivor count is 0 of 6.

What about the survivor count (dose: 200.0 mg/kg/injection, schedule: Q01DX001 (ip), vehicle: acetone) of the same molecule?
Its survivor count is 0 of 6.

What about the survivor count (dose: 400.0 mg/kg/injection, schedule: Q01DX001 (ip), vehicle: acetone) of the same molecule?
The survivor count was 0 of 6.

What does the source list for `C/C(=N\NC(=O)C1CCCO1)c1cccc2ccccc12` (stereo not given)?
survivor count [9]: 4 of 6; survivor count [8]: 6 of 6; survivor count [10]: 0 of 6; survivor count [12]: 0 of 6

`CCCC(=O)Nc1ccc(N=Nc2ccccc2)cc1` was tested. Which survivor count [12] did it give?
Its survivor count is 4 of 6.
